Among all 320,000 compounds or so, about 22,000 (6.9%) were called active. Inconclusive results, whose numbers are uncertain, are shown with a selection of clear calls. Calls follow the shape of the dose curve; as a rule, active = well fitted inhibition curve with a large enough effect; inconclusive = small, poorly fitted or top-dose-only effect, or another doubt; inactive = no such curve, though single readings can be large or run the other way. Where the call is inconclusive, the potency comes from a doubtful curve fit.
Assay: Primary qHTS for delayed death inhibitors of the malarial parasite plastid, 96 hour incubation
Details: P. falciparum luciferase reporter growth; series mostly up to 28.7 µM
In short: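 P. falciparum expressing integrated firefly luciferase grown in erythrocytes (2% hematocrit, 0.05% parasitemia final) with compounds for 96 hours at 37 C, 5% CO2. Growth inhibition read as loss of luminescence after adding luciferase detection reagent.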
In the case of CCN(CC)S(=O)(=O)c1ccc(N2CCOCC2)c(NS(=O)(=O)c2ccc(OC)cc2)c1, the Potency is reported as inconclusive: 3.29 µM [inhibitor, partial curve, poor fit]. For O=C(NNC(=O)c1cc(O)c(O)c(O)c1)NC1CCCCC1, the Potency was “inactive”. In the case of CCCn1c(N)c(Sc2ccccc2[N+](=O)[O-])c(=O)n(CCC)c1=O, the Potency is reported as inconclusive: 5.22 µM [inhibitor, full curve, poor fit]. In the case of Cc1cc(OC(C)C(=O)N(Cc2ccco2)C2CCS(=O)(=O)C2)ccc1Cl (centres undefined), the Potency is reported as “inactive”. With Cn1c(=O)c2c(nc(CN3CCN(C(=O)c4ccco4)CC3)n2CCCc2ccccc2)n(C)c1=O the Potency was active: 7.38 µM. In the case of CC(C)(C)c1ccc(C(=O)N2CCCN(C(=O)c3ccc(C(C)(C)C)cc3)CC2)cc1, the Potency is reported as “inactive”. In the case of Nc1ccc(CCc2nc3ccccc3o2)cc1, the Potency is reported as inconclusive: 7.38 µM [inhibitor, partial curve]. In the case of C=Cc1c(C)c2cc3[nH]c(cc4nc(cc5nc(cc1[nH]2)C(C)=C5CCC(=O)O)C(CCC(=O)O)=C4C)c(C)c3C=C, the Potency is reported as “inactive”. For CCC(C)[C@H](NC(=O)NCc1cccc(OC)c1)C(=O)O (some centres undefined), the Potency was inconclusive: 1.65 µM [inhibitor, full curve]. For CCC(=O)c1ccc(OCC(=O)Nc2cc(S(=O)(=O)N3CCCCC3)ccc2OC)cc1, the Potency was inconclusive: 11.7 µM [inhibitor, partial curve, poor fit]. With CC1CN(S(=O)(=O)c2cccc(C(=O)N(Cc3nnc(-c4ccccc4Cl)o3)C3CC3)c2)CC(C)O1 (centres undefined) the Potency was active: 11.7 µM. With C=CCc1cccc(/C=N/NC(=O)c2ccccc2OC)c1O the Potency was inconclusive: 18.5 µM [inhibitor, single point]. In the case of Cn1c(=O)c2c(nc3n2CC(COc2ccc(Cl)cc2)O3)n(C)c1=O (centres undefined), the Potency is reported as inconclusive: 18.5 µM [inhibitor, single point]. In the case of O=C(Cn1cc([N+](=O)[O-])cn1)NCCc1nc2ccccc2[nH]1, the Potency is reported as active: 9.28 µM. For CC1(C)Cc2nc3nc(SCC(=O)NCCc4ccccc4)n(-c4ccccc4)c(=O)c3cc2CO1, the Potency was active: 4.15 µM. In the case of NC(=O)c1nn(CC(=O)Nc2ccc3c(c2)OCO3)cc1[N+](=O)[O-], the Potency is reported as inconclusive: 8.28 µM [inhibitor, partial curve, poor fit]. With CCCSc1nc(C)c(CC(=O)O)c(=O)[nH]1 the Potency was “inactive”. For N#CC1=C(N)N(c2ccccc2)C(c2cccc([N+](=O)[O-])c2)C1(C#N)C#N (centres undefined), the Potency was inconclusive: 2.94 µM [inhibitor, single point]. In the case of COC(=O)c1cc(C(=O)Cc2ccccc2)c[nH]1, the Potency is reported as inconclusive: 4.65 µM [inhibitor, partial curve, poor fit]. With CCCc1nnc(NC(=O)c2cc3ccccc3o2)s1 the Potency was “inactive”. With COc1ccc(/C=N/Nc2cc(C)nc(NS(=O)(=O)c3ccc(C)cc3)n2)cc1 the Potency was “inactive”. In the case of CCNC(=O)N1CCNC(=O)C1CC(=O)OC (centres undefined), the Potency is reported as inconclusive: 18.5 µM [inhibitor, single point]. For Cc1ccccc1CS(=O)(=O)c1ncc(Cl)c(C(=O)Nc2ccc(F)cc2)n1, the Potency was “inactive”. For CCC(C)N(C(=O)CSc1nc(-c2ccccc2)cs1)C1CCS(=O)(=O)C1 (centres undefined), the Potency was inconclusive: 10.4 µM [inhibitor, partial curve, poor fit]. For CC(C)N(C(=O)Nc1ccc2nsnc2c1)C(C)C, the Potency was inconclusive: 10.4 µM [inhibitor, partial curve, poor fit]. In the case of COc1ccc(CCNC(=O)CCN2C(=O)[C@@H]3Cc4ccccc4CN3C2=O)cc1OC, the Potency is reported as inconclusive: 2.08 µM [inhibitor, full curve, poor fit]. In the case of CCCCCCCCSc1nnc(CSc2nc3nc(C)cc(C)n3n2)o1, the Potency is reported as inconclusive: 18.5 µM [inhibitor, single point]. In the case of CCCn1c(SCC(=O)N2CCOCC2)nnc1-c1ccncc1, the Potency is reported as “inactive”. In the case of Cc1ccc(-c2cc(C(=O)NCCN3CCOCC3)c3ccccc3n2)o1, the Potency is reported as inconclusive: 18.5 µM [inhibitor, single point]. With Clc1ccc(N=C2SCC3CCCCN23)cc1 (centres undefined) the Potency was “inactive”. For O=C(COc1ccc2c(c1)OCO2)Nc1ccccc1C(F)(F)F, the Potency was inconclusive: 7.38 µM [inhibitor, single point]. For CCn1c(SCC(=O)NCCc2ccccc2)nc2c(c1=O)SC(C)C2 (centres undefined), the Potency was inconclusive: 0.0329 µM [inhibitor, full curve, poor fit]. For Cc1nc(C(F)(F)F)ccc1C(=O)Nc1ccc2ccccc2n1, the Potency was inconclusive: 2.62 µM [inhibitor, single point]. In the case of COC(=O)c1c(NC(C)=O)sc(C(=O)Nc2ccccc2OC)c1C, the Potency is reported as inconclusive: 5.22 µM [inhibitor, partial curve]. With COCCn1c(SCC(=O)NC2CCCCC2)nc2c(c1=O)SCC2 the Potency was inconclusive: 0.208 µM [inhibitor, full curve, poor fit]. With CCOc1ccc(OCC)c(S(=O)(=O)n2ccnc2C)c1 the Potency was inconclusive: 18.5 µM [inhibitor, partial curve, poor fit]. With Cc1ccccc1-c1nnc(SCC(=O)Nc2ccc3c(c2)OCCO3)n1N the Potency was inconclusive: 18.5 µM [inhibitor, single point]. With CCOP(=O)(OCC)C(NC(=O)Cc1ccccc1)C(Cl)(Cl)Cl (centres undefined) the Potency was “inactive”. With Cc1ccc(C(=O)NCc2ccco2)o1 the Potency was inconclusive: 18.5 µM [inhibitor, single point]. For COc1cc(OC)cc(C(=O)N2CCC(C(=O)Nc3ccc4c(c3)OCCO4)CC2)c1, the Potency was “inactive”. In the case of Cn1c(-c2ccc(F)cc2)cnc1SCC(=O)N1CCCc2ccccc21, the Potency is reported as inconclusive: 1.47 µM [inhibitor, partial curve]. With Cc1ccc(N=Cc2cc(Cl)cc(Cl)c2O)nc1 the Potency was inconclusive: 18.5 µM [inhibitor, single point]. For COc1ccc(CCC(=O)Nc2ccc(OC)c(S(=O)(=O)N3CCCCC3)c2)cc1OC, the Potency was inconclusive: 18.5 µM [inhibitor, single point]. In the case of CC(=O)NCCc1ccc(C(=O)CSc2nnc(C3CC3)n2C2CC2)cc1, the Potency is reported as “inactive”. For COCCNC(=O)C1Cc2cc(S(=O)(=O)N3CCCC3)ccc2N1C(C)=O (centres undefined), the Potency was inconclusive: 18.5 µM [inhibitor, single point]. In the case of COc1cccc(C2=NOC(C(=O)NCc3ccccc3)C2)c1 (centres undefined), the Potency is reported as active: 4.15 µM. In the case of CCCOc1ccc(/C=C2/C(=O)ON=C2C)cc1OCC, the Potency is reported as “inactive”. For COC(=O)C1=C(N)N(c2ccccc2C(F)(F)F)C2=C(C(=O)CCC2)C1c1ccc2c(c1)OCO2 (centres undefined), the Potency was active: 7.38 µM. With CCOc1ccc(CNC(=O)c2ccc(Sc3ccc(Cl)cc3)c(NC(C)=O)c2)cc1OC the Potency was “inactive”. With Cc1ccc(CC2SC(=Nc3ccccc3)N(c3ccccc3)C2=O)cc1 (centres undefined) the Potency was “inactive”. With CC(=O)c1ccc(NC(=O)c2cc3nc4c(c(C(F)(F)F)n3n2)CCCC4)cc1 the Potency was inconclusive: 8.28 µM [inhibitor, partial curve, poor fit]. With O=S(=O)(Nc1ccccc1)c1ccc(S(=O)(=O)N2CCCC2)cc1 the Potency was inconclusive: 18.5 µM [inhibitor, single point]. In the case of Cc1ccc(OCc2ccc(C(=O)Nc3ccc(S(N)(=O)=O)cc3)o2)cc1, the Potency is reported as “inactive”. With COc1ccc(NC(=O)/C=C/c2cccc(Br)c2)cn1 the Potency was inconclusive: 18.5 µM [inhibitor, partial curve, poor fit]. In the case of Cc1ccc(/C=N/N2CCN(Cc3ccc(C)cc3)CC2)cc1, the Potency is reported as “inactive”. With O=C(c1cc(=O)[nH]c2ccccc12)N1CCN(c2ccccc2)CC1 the Potency was “inactive”. With COc1ccc2nc3sc(C(=O)NCCN4CCc5ccccc5C4)cc3cc2c1 the Potency was inconclusive: 0.415 µM [inhibitor, partial curve, poor fit]. With CC(=O)Nc1cc(C(=O)NCc2ccco2)ccc1Sc1ccc(Cl)cc1 the Potency was inconclusive: 18.5 µM [inhibitor, single point]. With O=C1CN(C(=O)c2ccc(Cl)c(S(=O)(=O)N3CCc4ccccc43)c2)c2ccccc2N1 the Potency was inconclusive: 11.7 µM [inhibitor, single point]. With O=C(Nc1ccccc1Cl)c1ccccc1S(=O)(=O)c1ccccc1[N+](=O)[O-] the Potency was inconclusive: 13.1 µM [inhibitor, single point]. For CC(C)[n+]1ccn(C2=C([O-])c3ccccc3C(=O)/C2=N\S(=O)(=O)c2ccccc2)c1, the Potency was inconclusive: 1.47 µM [inhibitor, partial curve, poor fit]. For CN(Cc1ccccc1)C(=O)c1[nH]cnc1C(=O)Nc1nccs1, the Potency was inconclusive: 16.5 µM [inhibitor, single point]. In the case of CCC(=O)Oc1ccc2c(C)cc(=O)oc2c1C, the Potency is reported as inconclusive: 11.7 µM [inhibitor, single point]. With CC(=O)N1CC[n+]2c(-c3ccc(Cl)cc3Cl)csc21 the Potency was inconclusive: 18.5 µM [inhibitor, single point]. For COC(=O)C1=C(C)NC(C)=C(C(=O)OCCN2CCN(C(c3ccccc3)c3ccccc3)CC2)C1c1cccc([N+](=O)[O-])c1 (centres undefined), the Potency was active: 2.39 µM. With CN(C(=O)CCCN1CCCC1=O)C1CCCN(Cc2ccccc2F)C1 (centres undefined) the Potency was inconclusive: 14.7 µM [inhibitor, partial curve]. With Oc1ccc(/C=N/Nc2nc(N3CCCCCC3)nc(N3CCCCCC3)n2)c(O)c1 the Potency was “inactive”. With NC1=NC[C@@H](Cc2ccc(O)cc2)N1CCc1cccc2ccccc12 the Potency was active: 1.85 µM. With C[C@@]12C(=O)N(CC3CCCO3)CC(=O)N1[C@H]1c3ccccc3OC[C@@H]1[C@@H]2c1ccccc1 (some centres undefined) the Potency was inconclusive: 16.5 µM [inhibitor, single point].

Source: PubChem BioAssay AID504834 (National Center for Advancing Translational Sciences (NCATS), 2011)
Potency is read from the fitted curve at half-maximal effect.
